# PubChem BioAssay AID1159584, Peter MacCallum Cancer Centre – 2016
# Test: 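Genes that CDH1-null MCF10A cells selectively depend on to survive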 (primary screen)
# Cells: human MCF10A breast epithelial cells, parental and CDH1-null
# Reagents: siRNA against human genes
# Read-out: 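Cell viability by CellTiter-Glo ATP luminescence, each line scaled to the mean of mock wells across plates, then CDH1-null over parental ratio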
# Reading the numbers: CDH1-null / parental viability ratio: higher = CDH1-null cells survive relatively better than parental
# Shown is one part, drawn at random, of about 18,000 deposited reagents. Further read-outs or replicates are left out here. Not stated in the record: the amount of reagent, the time to read-out.
target gene,CDH1-null / parental viability ratio
FOXG1 (GeneID 2290),0.94
DUSP11 (GeneID 8446),1.41
MMADHC (GeneID 27249),1.15
OIT3 (GeneID 170392),1.02
PARP4 (GeneID 143),1.18
ZNF285 (GeneID 26974),0.97
INO80E (GeneID 283899),0.83
VEGFD (GeneID 2277),1
FEZ1 (GeneID 9638),0.98
KCNK13 (GeneID 56659),1.33
PCF11 (GeneID 51585),1.18
CT83 (GeneID 203413),0.63
BRINP1 (GeneID 1620),1.08
H4C1 (GeneID 8359),1.15
OGFOD2 (GeneID 79676),1.08
PIK3C2A (GeneID 5286),1
IFNA6 (GeneID 3443),1.51
PUM3 (GeneID 9933),0.86
TXLNG (GeneID 55787),0.98
PTPN2 (GeneID 5771),1.29
DRAM1 (GeneID 55332),0.87
CAPRIN2 (GeneID 65981),1
AVPI1 (GeneID 60370),0.73
ENTPD4 (GeneID 9583),0.94
INTS14 (GeneID 81556),1.13
ACOT6 (GeneID 641372),1.11
ZNF446 (GeneID 55663),0.94
GOLGA2P5 (GeneID 55592),1.17
PCDH9 (GeneID 5101),0.87
TRAPPC3 (GeneID 27095),1.06
FBXW5 (GeneID 54461),0.87
ZNF497 (GeneID 162968),0.91
OSBPL11 (GeneID 114885),1
ZIC2 (GeneID 7546),1.07
KRTAP5-2 (GeneID 440021),1.14
NBPF14 (GeneID 25832),0.96
EGFR (GeneID 1956),0.85
UGT2B11 (GeneID 10720),1.15
PCDHGA11 (GeneID 56105),0.74
NXPH2 (GeneID 11249),0.86
FAHD2B (GeneID 151313),0.69
NME3 (GeneID 4832),0.99
HPS6 (GeneID 79803),0.85
RABL6 (GeneID 55684),0.86
NFATC2 (GeneID 4773),0.88
ITGA9 (GeneID 3680),0.92
